Measurements taken from doi:10.1101/2023.12.10.570965.
These are yes or no findings as the source states them, for the method shown. In cells and extracts the contact can be indirect. Some results given as binding are weak or reduced against the parent protein; the word gives no strength. For some assays here: Sequences can lack the tags named with a protein.

Sequences of proteins named here, by UniProt entry; tags and fusion partners are left off.
UniProt Q7Z434: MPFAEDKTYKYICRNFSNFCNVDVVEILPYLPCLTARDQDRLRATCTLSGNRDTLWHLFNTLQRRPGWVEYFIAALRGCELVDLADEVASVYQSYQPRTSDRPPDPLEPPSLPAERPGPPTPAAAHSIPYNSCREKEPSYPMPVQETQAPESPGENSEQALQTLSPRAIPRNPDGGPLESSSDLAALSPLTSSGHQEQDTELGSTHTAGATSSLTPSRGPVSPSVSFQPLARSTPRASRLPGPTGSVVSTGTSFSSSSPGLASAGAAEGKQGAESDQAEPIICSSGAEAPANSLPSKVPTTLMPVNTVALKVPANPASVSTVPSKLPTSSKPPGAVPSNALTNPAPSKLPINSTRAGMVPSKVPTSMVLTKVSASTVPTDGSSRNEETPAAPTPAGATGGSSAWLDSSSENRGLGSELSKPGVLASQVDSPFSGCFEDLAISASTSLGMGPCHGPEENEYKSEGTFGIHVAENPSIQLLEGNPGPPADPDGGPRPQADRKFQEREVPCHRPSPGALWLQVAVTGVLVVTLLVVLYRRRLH
UniProt Q8N884: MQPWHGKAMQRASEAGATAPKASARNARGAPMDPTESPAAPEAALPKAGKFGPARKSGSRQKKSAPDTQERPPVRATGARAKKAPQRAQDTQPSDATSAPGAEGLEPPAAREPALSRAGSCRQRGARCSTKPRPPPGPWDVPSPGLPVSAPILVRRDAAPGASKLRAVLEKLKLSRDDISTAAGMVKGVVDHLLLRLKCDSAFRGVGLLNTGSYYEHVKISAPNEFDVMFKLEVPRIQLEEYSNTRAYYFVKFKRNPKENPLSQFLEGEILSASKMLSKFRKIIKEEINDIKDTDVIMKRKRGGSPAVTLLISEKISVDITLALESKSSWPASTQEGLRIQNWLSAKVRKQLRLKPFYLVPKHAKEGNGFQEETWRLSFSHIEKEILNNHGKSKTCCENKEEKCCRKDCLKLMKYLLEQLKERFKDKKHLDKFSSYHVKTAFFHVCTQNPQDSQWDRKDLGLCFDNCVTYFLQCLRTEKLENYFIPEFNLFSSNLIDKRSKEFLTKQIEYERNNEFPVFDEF
UniProt Q86WV6: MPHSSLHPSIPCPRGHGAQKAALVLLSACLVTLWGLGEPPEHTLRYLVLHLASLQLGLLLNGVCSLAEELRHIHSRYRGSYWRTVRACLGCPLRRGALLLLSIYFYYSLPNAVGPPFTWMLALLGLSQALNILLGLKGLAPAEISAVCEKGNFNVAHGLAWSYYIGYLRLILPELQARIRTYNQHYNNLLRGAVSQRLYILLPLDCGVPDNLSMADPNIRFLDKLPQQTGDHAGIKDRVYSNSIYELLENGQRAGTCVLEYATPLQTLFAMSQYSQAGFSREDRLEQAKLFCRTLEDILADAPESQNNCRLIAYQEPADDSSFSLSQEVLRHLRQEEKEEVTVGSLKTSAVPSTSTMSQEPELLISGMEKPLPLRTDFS

Key:
[1] = target: Flag-tagged mitochondrial antiviral signaling protein (MAVS) (UniProt Q7Z434); assay: co-IP
[2] = target: Flag-tagged cyclic GMP-AMP synthase (cGAS) (UniProt Q8N884); assay: co-IP
[3] = target: Flag-tagged stimulator of interferon genes (STING) (UniProt Q86WV6); assay: co-IP
[4] = target: MAVS, in vitro transcribed and translated (UniProt Q7Z434); assay: pull-down
[5] = target: T1, endogenous MAVS of mouse lung (mouse (endogenous in lung tissue)) (UniProt Q8VCF0); assay: co-IP
T1 sequence: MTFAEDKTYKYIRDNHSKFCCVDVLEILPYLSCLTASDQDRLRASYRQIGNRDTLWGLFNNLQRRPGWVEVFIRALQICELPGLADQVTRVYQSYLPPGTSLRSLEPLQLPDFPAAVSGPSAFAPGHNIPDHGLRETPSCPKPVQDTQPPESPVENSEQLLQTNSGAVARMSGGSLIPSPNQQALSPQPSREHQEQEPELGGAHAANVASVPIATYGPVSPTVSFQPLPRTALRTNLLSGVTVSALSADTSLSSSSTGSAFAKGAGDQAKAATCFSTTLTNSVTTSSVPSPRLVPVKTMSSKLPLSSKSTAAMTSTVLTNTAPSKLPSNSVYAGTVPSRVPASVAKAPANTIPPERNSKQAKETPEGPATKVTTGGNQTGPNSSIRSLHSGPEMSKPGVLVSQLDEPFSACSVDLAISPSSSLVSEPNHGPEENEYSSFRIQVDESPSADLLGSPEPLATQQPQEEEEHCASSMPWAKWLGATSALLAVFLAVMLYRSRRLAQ

B1: HA-tagged Ankyrin repeat and SOCS box-containing protein 3 (ASB3) (protein, UniProt Q9Y575 1-518)
chain: MDFTEAYADTCSTVGLAAREGNVKVLRKLLKKGRSVDVADNRGWMPIHEAAYHNSVECLQMLINADSSENYIKMKTFEGFCALHLAASQGHWKIVQILLEAGADPNATTLEETTPLFLAVENGQIDVLRLLLQHGANVNGSHSMCGWNSLHQASFQENAEIIKLLLRKGANKECQDDFGITPLFVAAQYGKLESLSILISSGANVNCQALDKATPLFIAAQEGHTKCVELLLSSGADPDLYCNEDSWQLPIHAAAQMGHTKILDLLIPLTNRACDTGLNKVSPVYSAVFGGHEDCLEILLRNGYSPDAQACLVFGFSSPVCMAFQKDCEFFGIVNILLKYGAQINELHLAYCLKYEKFSIFRYFLRKGCSLGPWNHIYEFVNHAIKAQAKYKEWLPHLLVAGFDPLILLCNSWIDSVSIDTLIFTLEFTNWKTLAPAVERMLSARASNAWILQQHIATVPSLTHLCRLEIRSSLKSERLRSDSYISQLPLPRSLHNYLLYEDVLRMYEVPELAAIQDG
binding [1]: binds
binding [2]: no binding
binding [3]: no binding

B2: ASB3, in vitro transcribed and translated (protein, UniProt Q9Y575 1-518)
chain: MDFTEAYADTCSTVGLAAREGNVKVLRKLLKKGRSVDVADNRGWMPIHEAAYHNSVECLQMLINADSSENYIKMKTFEGFCALHLAASQGHWKIVQILLEAGADPNATTLEETTPLFLAVENGQIDVLRLLLQHGANVNGSHSMCGWNSLHQASFQENAEIIKLLLRKGANKECQDDFGITPLFVAAQYGKLESLSILISSGANVNCQALDKATPLFIAAQEGHTKCVELLLSSGADPDLYCNEDSWQLPIHAAAQMGHTKILDLLIPLTNRACDTGLNKVSPVYSAVFGGHEDCLEILLRNGYSPDAQACLVFGFSSPVCMAFQKDCEFFGIVNILLKYGAQINELHLAYCLKYEKFSIFRYFLRKGCSLGPWNHIYEFVNHAIKAQAKYKEWLPHLLVAGFDPLILLCNSWIDSVSIDTLIFTLEFTNWKTLAPAVERMLSARASNAWILQQHIATVPSLTHLCRLEIRSSLKSERLRSDSYISQLPLPRSLHNYLLYEDVLRMYEVPELAAIQDG
binding [4]: binds

B3: endogenous ASB3 of mouse lung (protein, UniProt Q9WV72 1-525)
chain: MDFTEAYSDTCSTVGLAAREGNVKILRKLLKKGRSVDVADNRGWMPIHEAAYHNAVECLQMLIHTDSSENYIKAKTFEGFCALHLAVSQGHWKITQILLEAGADPNETTLEETTPLFLAVESGRIDVLKLLLQHGANVNGSHSMSGWNSLHQASFQGNAETIRLLLKQGADRECQDDFGITPLFVAAQYGKLESMSILISSGANVNCQALDKATPLFIAAQEGHTKCVELLLSSGADPDLYCNEDNWQLPIHAAAQMGHTETLDLLIPRTNRACDTGPDKVSPVYSAVFGGREECLEMLLQNGYSPDAQMCLVFGFSSPLCMAFQKDCDFSGIVNILLKYGAQLNELHLAYCLKYEKFSMFCSFLKKGSLMVPWNHTSEFISYAVKAQTKYKAWLPHLLLAGFDPLILLCSSSWVDSASDDILIFTLEFSNWKRLPSAVEKMLSVRANSSWALQQHLASVPSLTHLCRLEIRASLKAEHLHSDIFIHQLPLPRSLQNYLLYEEVLRMNEILEPAANQDGETSKAT
binding [5]: binds
